The source of these data is the supplement of paper PMC12067093, “Discovery and optimisation of a covalent ligand for TRIM25 and its application to targeted protein ubiquitination” (Chemical Science, 2025).

Chains of the proteins cited; added tags and fusions are not shown. Lines headed by an entry give the natural chain unless they say otherwise; changes in a name come on top.
UniProt Q92851: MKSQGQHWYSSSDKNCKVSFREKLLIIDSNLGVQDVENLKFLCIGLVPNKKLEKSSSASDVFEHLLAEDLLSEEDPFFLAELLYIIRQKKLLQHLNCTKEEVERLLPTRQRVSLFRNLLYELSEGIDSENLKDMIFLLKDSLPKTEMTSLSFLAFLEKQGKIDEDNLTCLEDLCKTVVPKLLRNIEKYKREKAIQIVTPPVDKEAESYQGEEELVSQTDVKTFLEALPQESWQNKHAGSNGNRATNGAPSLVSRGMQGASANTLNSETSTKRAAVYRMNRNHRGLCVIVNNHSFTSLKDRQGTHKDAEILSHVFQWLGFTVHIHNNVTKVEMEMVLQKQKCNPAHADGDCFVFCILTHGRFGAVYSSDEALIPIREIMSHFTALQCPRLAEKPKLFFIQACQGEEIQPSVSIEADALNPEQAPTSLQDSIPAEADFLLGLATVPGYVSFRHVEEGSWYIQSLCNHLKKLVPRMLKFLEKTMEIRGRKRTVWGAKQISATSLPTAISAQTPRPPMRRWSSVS
UniProt P04040: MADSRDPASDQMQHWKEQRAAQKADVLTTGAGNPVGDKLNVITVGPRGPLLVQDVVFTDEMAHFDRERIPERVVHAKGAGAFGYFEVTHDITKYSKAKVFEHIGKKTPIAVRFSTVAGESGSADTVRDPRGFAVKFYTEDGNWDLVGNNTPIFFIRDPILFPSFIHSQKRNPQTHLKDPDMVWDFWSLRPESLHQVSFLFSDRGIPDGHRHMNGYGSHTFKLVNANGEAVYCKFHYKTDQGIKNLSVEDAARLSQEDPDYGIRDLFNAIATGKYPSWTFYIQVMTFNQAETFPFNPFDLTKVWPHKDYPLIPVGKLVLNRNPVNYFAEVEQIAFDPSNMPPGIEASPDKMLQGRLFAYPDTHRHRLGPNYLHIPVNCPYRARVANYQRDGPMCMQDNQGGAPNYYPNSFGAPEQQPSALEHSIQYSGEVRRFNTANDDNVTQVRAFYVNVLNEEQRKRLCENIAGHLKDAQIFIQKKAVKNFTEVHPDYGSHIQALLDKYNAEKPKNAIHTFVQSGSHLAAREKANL
UniProt Q9BX69: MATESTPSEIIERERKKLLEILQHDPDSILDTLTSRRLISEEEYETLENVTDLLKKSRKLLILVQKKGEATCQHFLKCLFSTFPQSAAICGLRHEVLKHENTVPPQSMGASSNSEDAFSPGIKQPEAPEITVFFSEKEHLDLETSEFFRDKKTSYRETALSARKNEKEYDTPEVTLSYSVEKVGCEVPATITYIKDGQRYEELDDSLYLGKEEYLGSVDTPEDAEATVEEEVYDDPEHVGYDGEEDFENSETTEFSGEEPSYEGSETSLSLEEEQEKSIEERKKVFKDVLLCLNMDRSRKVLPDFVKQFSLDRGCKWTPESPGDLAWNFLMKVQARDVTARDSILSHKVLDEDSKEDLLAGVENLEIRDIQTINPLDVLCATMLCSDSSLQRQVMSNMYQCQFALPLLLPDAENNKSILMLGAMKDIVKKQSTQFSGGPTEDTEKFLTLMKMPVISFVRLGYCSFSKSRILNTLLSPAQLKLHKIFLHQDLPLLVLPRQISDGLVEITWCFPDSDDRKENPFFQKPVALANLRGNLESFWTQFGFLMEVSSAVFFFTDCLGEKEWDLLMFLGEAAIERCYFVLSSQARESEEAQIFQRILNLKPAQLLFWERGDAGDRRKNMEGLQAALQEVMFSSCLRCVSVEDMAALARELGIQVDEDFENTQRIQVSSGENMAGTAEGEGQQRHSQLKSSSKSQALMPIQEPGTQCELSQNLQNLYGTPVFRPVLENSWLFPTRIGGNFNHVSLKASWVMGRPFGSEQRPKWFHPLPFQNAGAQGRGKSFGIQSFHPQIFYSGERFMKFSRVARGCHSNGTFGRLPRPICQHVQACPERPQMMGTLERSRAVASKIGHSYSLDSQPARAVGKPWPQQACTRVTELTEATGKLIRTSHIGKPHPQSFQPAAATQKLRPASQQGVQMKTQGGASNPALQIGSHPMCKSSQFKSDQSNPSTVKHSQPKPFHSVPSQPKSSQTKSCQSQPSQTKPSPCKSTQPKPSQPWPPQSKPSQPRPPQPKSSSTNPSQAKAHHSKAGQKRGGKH
UniProt P51946: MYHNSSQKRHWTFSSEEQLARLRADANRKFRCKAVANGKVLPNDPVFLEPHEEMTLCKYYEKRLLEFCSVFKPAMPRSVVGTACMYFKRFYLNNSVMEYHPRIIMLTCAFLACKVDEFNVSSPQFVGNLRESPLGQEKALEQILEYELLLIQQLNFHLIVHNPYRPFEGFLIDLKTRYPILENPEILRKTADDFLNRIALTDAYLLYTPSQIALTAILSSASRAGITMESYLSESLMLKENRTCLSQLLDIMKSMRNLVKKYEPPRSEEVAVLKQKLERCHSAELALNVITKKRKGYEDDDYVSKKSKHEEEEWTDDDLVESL
UniProt Q9H257: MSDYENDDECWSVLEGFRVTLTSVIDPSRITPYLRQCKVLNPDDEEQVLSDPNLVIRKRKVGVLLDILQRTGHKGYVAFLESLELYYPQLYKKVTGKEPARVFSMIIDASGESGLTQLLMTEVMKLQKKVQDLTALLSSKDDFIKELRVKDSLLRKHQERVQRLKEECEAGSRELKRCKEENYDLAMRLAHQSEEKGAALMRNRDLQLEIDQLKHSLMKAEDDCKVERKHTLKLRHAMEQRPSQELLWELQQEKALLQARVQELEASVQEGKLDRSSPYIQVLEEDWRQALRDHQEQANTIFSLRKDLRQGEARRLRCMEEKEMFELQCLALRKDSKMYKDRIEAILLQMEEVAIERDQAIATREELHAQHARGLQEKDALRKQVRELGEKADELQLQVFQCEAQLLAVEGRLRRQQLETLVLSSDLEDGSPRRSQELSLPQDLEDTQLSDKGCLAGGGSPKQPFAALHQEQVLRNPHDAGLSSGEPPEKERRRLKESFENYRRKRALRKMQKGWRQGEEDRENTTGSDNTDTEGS
UniProt O60583: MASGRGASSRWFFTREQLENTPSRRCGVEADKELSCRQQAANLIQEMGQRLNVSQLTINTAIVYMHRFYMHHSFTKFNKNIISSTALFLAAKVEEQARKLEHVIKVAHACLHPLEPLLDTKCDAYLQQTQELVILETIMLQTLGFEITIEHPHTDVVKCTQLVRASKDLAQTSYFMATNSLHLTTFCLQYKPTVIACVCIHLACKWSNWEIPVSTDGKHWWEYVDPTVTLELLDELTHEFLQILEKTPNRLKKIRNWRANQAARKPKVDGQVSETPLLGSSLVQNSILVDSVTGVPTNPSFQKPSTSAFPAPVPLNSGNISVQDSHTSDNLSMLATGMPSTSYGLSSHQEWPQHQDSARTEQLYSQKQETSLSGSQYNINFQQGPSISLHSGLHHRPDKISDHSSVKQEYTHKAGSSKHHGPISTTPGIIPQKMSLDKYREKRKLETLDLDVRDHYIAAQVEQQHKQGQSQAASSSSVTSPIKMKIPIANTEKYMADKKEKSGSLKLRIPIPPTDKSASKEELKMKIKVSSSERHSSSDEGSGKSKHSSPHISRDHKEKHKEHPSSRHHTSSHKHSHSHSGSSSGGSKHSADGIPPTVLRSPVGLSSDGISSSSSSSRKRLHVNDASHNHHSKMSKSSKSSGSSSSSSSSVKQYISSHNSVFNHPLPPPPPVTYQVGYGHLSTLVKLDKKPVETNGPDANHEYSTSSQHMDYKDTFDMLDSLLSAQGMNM
UniProt Q8IWD4: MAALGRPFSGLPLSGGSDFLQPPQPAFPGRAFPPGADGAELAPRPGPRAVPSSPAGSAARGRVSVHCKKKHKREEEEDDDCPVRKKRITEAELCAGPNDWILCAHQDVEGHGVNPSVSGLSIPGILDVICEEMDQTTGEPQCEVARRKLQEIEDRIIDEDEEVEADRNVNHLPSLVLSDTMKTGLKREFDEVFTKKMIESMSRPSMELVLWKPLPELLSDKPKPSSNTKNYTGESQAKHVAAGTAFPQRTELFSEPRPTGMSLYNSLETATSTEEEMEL
UniProt P42574: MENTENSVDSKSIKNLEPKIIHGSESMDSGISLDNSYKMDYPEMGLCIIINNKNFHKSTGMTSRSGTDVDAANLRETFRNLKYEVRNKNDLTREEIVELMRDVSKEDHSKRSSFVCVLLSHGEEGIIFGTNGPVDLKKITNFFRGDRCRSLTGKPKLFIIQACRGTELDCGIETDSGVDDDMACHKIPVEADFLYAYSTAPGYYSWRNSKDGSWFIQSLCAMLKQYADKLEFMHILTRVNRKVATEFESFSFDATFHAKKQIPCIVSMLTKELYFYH
UniProt P04632: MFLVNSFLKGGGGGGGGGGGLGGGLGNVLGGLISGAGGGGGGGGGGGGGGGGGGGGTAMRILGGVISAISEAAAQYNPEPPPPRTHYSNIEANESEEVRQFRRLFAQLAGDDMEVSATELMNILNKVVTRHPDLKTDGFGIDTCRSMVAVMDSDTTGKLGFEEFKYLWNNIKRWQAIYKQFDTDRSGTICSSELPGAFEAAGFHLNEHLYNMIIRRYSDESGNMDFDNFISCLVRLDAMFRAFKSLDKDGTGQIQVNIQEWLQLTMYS
UniProt A6NC98: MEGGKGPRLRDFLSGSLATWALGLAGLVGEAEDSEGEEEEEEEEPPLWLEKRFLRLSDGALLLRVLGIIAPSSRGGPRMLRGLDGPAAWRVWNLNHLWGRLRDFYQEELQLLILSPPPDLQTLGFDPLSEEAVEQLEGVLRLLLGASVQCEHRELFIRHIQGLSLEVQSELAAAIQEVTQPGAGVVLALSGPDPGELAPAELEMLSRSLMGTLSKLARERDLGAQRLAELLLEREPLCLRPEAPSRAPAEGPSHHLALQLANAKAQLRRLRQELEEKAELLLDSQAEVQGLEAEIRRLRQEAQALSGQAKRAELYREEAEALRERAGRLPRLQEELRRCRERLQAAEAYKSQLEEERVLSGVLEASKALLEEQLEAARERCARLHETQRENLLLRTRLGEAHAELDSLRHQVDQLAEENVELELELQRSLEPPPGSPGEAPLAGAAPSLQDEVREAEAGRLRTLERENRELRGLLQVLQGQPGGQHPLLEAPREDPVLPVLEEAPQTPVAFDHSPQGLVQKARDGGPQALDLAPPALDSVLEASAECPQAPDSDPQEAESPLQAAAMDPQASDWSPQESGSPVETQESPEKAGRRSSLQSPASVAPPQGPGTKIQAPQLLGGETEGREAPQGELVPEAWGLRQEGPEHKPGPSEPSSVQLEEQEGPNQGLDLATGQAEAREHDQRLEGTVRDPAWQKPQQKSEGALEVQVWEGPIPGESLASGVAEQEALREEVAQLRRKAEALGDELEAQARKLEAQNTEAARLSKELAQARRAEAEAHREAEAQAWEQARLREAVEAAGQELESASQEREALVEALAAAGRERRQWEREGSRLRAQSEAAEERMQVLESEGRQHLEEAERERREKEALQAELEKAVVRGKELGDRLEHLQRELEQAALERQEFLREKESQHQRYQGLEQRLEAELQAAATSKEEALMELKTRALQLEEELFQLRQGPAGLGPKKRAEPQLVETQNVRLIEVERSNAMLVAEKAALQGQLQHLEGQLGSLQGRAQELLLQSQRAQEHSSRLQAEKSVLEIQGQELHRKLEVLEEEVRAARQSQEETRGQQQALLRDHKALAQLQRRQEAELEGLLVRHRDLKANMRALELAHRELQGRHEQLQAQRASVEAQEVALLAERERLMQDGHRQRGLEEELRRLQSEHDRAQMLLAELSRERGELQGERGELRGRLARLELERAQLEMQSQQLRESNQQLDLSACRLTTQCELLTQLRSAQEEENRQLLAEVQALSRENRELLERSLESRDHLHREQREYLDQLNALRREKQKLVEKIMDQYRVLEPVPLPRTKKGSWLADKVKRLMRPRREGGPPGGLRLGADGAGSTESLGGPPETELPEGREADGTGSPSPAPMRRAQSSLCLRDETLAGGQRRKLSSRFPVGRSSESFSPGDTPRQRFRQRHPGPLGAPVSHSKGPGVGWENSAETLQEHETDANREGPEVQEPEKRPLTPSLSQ
UniProt Q9Y2V2: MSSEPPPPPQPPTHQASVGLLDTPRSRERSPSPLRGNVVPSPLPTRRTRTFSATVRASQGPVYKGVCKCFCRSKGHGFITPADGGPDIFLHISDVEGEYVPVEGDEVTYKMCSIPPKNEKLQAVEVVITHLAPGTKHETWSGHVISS

Some of the results follow.

Compound in this assay: Cc1cc(ccc1-c1ccccc1)C(=O)N1CCCN(CC1)C(=O)CCl [compound 10]
Put plainly: probe-labelled cysteine peptide fold change vs DMSO (competition) (log2 fold change); higher = less target engagement (more negative = stronger competition). Particulars: THP-1, incubation time: 4 h.
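Also: competitive profiling in live THP-1 cells: cysteine peptides tagged with an iodoacetamide desthiobiotin (IA-DTB) probe, intensity after compound treatment relative to DMSO-treated cells.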

On to “CASP10_Q92851_386_EIMSHFTALQCPR (UniProt Q92851)”, for which the “probe-labelled cysteine peptide fold change” value is, setting by setting: (10 µM) 0.0137; (50 µM) -0.0643.

Take “CAT_P04040_377_LGPNYLHIPVNCPYR (UniProt P04040)”: the “probe-labelled cysteine peptide fold change” value (10 µM) is -0.0544 and the “probe-labelled cysteine peptide fold change” value (50 µM) is -0.117.

“CARD6_Q9BX69_292_DVLLCLNMDR (UniProt Q9BX69)”: the “probe-labelled cysteine peptide fold change” value is -0.0196 (10 µM) and -0.152 (50 µM).

“CCNH_P51946_280_CHSAELALNVITK (UniProt P51946)”: the “probe-labelled cysteine peptide fold change” value was -0.0322 (10 µM) and 0.124 (50 µM).

With “CARD9_Q9H257_168_LKEECEAGSR (UniProt Q9H257)”, the “probe-labelled cysteine peptide fold change” value is 0.296 (10 µM) and -0.0223 (50 µM).

For the target “CARD6_Q9BX69_637_NMEGLQAALQEVMFSSCLR (UniProt Q9BX69)”, the “probe-labelled cysteine peptide fold change” value was -0.0846 (10 µM) and -0.183 (50 µM).

Take “CCNT2_O60583_26_CGVEADK (UniProt O60583)”: the “probe-labelled cysteine peptide fold change” value by setting is: (10 µM) -0.0575; (50 µM) -0.0268.

Turning to “CCDC117_Q8IWD4_81_EEEEDDDCPVR (UniProt Q8IWD4)”, the “probe-labelled cysteine peptide fold change” value is -0.106 (10 µM) and -0.0532 (50 µM).

For the target “CASP3_P42574_47_MDYPEMGLCIIINNK (UniProt P42574)”, the “probe-labelled cysteine peptide fold change” value (10 µM) is -0.153 and the “probe-labelled cysteine peptide fold change” value (50 µM) is -0.134.

As to “CAST_P20810-2_228_ELLAKPIGPDDAIDALSSDFTCGSPTAAGK (UniProt P20810)”, the “probe-labelled cysteine peptide fold change” value (10 µM) worked out at 0.0534 and the “probe-labelled cysteine peptide fold change” value (50 µM) was -0.125.

As to “CAPNS1_P04632_144_TDGFGIDTCR (UniProt P04632)”, the “probe-labelled cysteine peptide fold change” value (10 µM) was 0.149 and the “probe-labelled cysteine peptide fold change” value (50 µM) is -0.00453.

Take “CCDC97_Q96F63_218_TPTHQPPKPGSPGRPACPLSNLLLQSYEER (UniProt Q96F63)”: the “probe-labelled cysteine peptide fold change” value is, setting by setting: (10 µM) -0.272; (50 µM) -0.849.

“CCDC88B_A6NC98_238_EPLCLRPEAPSR (UniProt A6NC98)”: the “probe-labelled cysteine peptide fold change” value runs as follows: (10 µM) -0.221; (50 µM) -0.219.

For “CARHSP1_Q9Y2V2_112_MCSIPPK (UniProt Q9Y2V2)”, the “probe-labelled cysteine peptide fold change” value by setting is: (10 µM) -0.0121; (50 µM) 0.0208.
